Test results reported in article PMC11282859.
No constants are given. Whether binding was seen depends on the method and setting. In cells and extracts the contact can be indirect. Some binding calls cover weakened binding; strength is not graded here.

Amino acid sequences for entries named in this document (tags omitted).
UniProt Q86WV6: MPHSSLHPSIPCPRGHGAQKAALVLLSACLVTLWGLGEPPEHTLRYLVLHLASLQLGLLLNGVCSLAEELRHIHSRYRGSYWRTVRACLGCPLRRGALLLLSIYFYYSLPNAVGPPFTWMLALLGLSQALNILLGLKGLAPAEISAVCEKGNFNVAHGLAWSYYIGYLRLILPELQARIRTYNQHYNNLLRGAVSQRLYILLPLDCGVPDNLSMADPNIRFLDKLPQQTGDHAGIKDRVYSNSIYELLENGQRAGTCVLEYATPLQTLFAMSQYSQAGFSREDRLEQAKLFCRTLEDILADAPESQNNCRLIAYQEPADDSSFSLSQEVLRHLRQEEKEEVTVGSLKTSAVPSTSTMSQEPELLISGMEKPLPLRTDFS
UniProt P23443: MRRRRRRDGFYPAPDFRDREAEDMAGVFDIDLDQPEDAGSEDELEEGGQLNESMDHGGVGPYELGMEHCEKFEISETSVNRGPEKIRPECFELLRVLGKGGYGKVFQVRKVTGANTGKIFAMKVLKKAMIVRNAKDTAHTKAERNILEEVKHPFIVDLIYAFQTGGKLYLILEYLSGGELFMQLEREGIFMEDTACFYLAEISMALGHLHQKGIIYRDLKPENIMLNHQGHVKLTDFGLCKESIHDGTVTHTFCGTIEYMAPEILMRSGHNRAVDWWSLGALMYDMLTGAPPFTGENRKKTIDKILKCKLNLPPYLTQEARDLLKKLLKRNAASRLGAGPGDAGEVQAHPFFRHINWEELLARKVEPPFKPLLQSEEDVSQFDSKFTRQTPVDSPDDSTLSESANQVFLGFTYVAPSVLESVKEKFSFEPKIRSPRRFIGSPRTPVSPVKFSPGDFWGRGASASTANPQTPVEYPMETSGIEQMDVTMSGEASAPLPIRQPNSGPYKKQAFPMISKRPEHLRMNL

Columns and labels:
[1] = molecular target: T1, Membrane-associated RING-CH-1 (MARCH1) (human (cDNA from HEK293T)) (UniProt Q8TCQ1); experiment: co-IP; HEK293T cells co-transfected for 24 h (STING co-expressed in Fig. 4C); NETN lysis buffer (20 mM Tris pH 8.0, 150 mM NaCl, 0.5% NP-40, 1 mM EDTA); flag beads 6 h at 4 C; Western blot; cell treatments by panel: 10 uM MG132 for 12 h, serum starvation 16 h then 100 nM insulin 15 min, GSK8612 2 uM, Torin 1 100 nM, H151 1 uM for 6 h, MARCH1 overexpression, shTBK1
T1 sequence: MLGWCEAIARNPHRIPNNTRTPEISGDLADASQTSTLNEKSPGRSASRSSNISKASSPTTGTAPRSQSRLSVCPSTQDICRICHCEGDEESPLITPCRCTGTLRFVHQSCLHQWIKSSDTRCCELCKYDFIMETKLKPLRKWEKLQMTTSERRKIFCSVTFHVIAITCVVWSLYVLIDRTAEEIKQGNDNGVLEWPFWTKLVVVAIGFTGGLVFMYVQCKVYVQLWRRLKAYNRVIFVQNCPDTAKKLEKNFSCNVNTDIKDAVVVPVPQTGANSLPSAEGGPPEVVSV

[2] = molecular target: T2, TANK-binding kinase 1 (TBK1) (human (cDNA from HEK293T)) (UniProt Q9UHD2); experiment: as above
T2 sequence: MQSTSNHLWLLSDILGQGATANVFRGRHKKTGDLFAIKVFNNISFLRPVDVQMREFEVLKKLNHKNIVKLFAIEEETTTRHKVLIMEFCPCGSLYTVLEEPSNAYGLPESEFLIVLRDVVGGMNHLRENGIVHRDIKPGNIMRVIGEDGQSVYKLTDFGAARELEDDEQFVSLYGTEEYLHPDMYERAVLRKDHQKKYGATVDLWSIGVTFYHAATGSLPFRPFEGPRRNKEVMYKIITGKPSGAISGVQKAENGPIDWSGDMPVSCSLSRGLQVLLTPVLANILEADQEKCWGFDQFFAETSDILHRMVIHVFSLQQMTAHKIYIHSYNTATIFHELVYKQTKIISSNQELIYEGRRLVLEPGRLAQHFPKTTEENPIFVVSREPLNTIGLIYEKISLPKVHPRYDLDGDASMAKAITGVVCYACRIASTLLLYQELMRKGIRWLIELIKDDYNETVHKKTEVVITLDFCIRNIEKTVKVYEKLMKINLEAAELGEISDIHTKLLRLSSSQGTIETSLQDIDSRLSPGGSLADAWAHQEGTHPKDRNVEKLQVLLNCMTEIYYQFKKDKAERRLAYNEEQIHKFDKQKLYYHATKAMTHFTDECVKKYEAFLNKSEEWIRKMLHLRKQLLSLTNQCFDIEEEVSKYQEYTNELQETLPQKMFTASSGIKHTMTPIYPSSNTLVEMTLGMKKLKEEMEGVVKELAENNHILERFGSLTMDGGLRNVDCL

Row | binding [1] | binding [2] | Substance
1 | binds | – | STING-myc (stimulator of IFN genes) (from UniProt Q86WV6 1-379)
2 | – | binds | p70S6 Kinase 1 (S6K1) (from UniProt P23443 1-525) (enzyme)
